The assay deals with T1, 6His-SCO4804 recombinant protein (S. coelicolor) (UniProt Q9KY60).
T1 sequence: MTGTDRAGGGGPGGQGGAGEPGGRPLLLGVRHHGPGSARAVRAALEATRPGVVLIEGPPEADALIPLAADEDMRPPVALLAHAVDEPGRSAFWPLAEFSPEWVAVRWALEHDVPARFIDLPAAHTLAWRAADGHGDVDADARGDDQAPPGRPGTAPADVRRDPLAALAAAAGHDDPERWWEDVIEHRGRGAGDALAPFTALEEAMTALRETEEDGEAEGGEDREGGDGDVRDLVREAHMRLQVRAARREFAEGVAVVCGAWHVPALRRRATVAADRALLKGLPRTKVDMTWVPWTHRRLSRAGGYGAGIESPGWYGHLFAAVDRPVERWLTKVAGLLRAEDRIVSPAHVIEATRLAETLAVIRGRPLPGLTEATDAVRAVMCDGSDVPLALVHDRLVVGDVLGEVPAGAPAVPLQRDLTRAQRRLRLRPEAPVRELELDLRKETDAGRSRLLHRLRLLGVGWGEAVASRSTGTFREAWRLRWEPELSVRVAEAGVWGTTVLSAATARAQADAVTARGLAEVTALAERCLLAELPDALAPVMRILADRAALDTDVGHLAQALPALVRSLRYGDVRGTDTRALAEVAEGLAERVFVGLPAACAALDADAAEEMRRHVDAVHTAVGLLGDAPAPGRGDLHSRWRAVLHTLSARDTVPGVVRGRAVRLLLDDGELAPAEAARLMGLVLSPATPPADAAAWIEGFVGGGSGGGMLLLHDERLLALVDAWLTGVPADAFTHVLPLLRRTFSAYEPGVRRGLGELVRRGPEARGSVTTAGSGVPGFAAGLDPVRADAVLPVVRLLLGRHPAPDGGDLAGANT
Kind of assay: pull-down; 6His-SCO4804 bound to Ni-NTA agarose resin, incubated with lysate of the TopA-induced PS04 strain; TN buffer with 40 mM imidazole; elution with 200 mM imidazole; Western blot with anti-TopA polyclonal antibodies and 6xHis tag antibody; only the target purified. In general terms: A western blot detects proteins with antibodies after separation by electrophoresis.

Drawing on paper PMC8120823, this text covers binding for one molecule.

No constants are given. Whether binding was seen depends on the method and setting. In cells and extracts the contact can be indirect. Where a sequence is shown, tags or fusion partners need not be part of it.

B1: topoisomerase I (TopA) (enzyme, UniProt Q9X909 1-952)
chain: MSPTSETAKGGRRLVIVESPAKAKTIKGYLGPGYVVEASVGHIRDLPSGAAEVPEKYTGEVRRLGVDVEHDFQPIYVVNADKKSQVKKLKDLLKESDELFLATDEDREGEAIAWHLQEVLKPKIPVKRMVFHEITKDAIRAAVANPRELNQKLVDAQETRRILDRLYGYEVSPVLWKKVMPRLSAGRVQSVATRLVVERERERIAFRSAEYWDLTGTFATGRAGDASDPSSLVARLQTVDGRRVAQGRDFDSLGQLKSANTLHLDEANARALAAALENTRFAVRSVESKPYRRSPYAPFRTTTLQQEASRKLGFGAKSTMQVAQKLYENGYITYMRTDSTTLSDTAVSAARAQVTQLYGADYLPPQPRTYAGKVKNAQEAHEAIRPSGDRFRTPAETGLTGDQFKLYELIWKRTVASQMKDATGNSVTVKIGGAASDGRDVEFSASGKTITFHGFLKAYVEGADDPNAELDDRERRLPQVAEGDALTAEEITVDGHATKPPARYTEASLVKELEEREIGRPSTYASIIGTILDRGYVFKKGTALVPSFLSFAVVNLLEKHFGRLVDYDFTARMEDDLDRIARGEAQSVPWLRRFYFGEGDGTGGGGAADAGNGDGDHLGGLKELVTDLGAIDAREVSSFPVGNDIKLRVGRYGPYVERGEKDAENHQRADVPEDLAPDELSVELAEELLAKPSGDFELGTDPATGHAIVAKDGRYGPYVTEVLPEGTPKTGKNAVKPRTASLFKSMSLDTVTLDDALKLMSLPRVVGADAEGVEITAQNGRYGPYLKKGTDSRSLQTEDQLFEITLEEALAIYAQPKQRGRAAAKPPLKELGTDPVSEKPVVVKDGRFGPYVTDGETNATLRSDDSVEEITPERGYELLAEKRAKGPAKKTAKKAVKKTAAKKAPAKKAAATKKTAAAKTTAAKKTAAKSTAKKTTAKTAAKKATASKTSED
Turning to B1, the binding result is reported as “no binding”.
